Assay results from publication doi:10.1101/2021.01.28.428596.

Molecular target: T1, RIR1-GFP (ProRIR1:RIR1-GFP in the rir1-1 mutant) (Arabidopsis thaliana) (UniProt C0LGG9)
T1 sequence: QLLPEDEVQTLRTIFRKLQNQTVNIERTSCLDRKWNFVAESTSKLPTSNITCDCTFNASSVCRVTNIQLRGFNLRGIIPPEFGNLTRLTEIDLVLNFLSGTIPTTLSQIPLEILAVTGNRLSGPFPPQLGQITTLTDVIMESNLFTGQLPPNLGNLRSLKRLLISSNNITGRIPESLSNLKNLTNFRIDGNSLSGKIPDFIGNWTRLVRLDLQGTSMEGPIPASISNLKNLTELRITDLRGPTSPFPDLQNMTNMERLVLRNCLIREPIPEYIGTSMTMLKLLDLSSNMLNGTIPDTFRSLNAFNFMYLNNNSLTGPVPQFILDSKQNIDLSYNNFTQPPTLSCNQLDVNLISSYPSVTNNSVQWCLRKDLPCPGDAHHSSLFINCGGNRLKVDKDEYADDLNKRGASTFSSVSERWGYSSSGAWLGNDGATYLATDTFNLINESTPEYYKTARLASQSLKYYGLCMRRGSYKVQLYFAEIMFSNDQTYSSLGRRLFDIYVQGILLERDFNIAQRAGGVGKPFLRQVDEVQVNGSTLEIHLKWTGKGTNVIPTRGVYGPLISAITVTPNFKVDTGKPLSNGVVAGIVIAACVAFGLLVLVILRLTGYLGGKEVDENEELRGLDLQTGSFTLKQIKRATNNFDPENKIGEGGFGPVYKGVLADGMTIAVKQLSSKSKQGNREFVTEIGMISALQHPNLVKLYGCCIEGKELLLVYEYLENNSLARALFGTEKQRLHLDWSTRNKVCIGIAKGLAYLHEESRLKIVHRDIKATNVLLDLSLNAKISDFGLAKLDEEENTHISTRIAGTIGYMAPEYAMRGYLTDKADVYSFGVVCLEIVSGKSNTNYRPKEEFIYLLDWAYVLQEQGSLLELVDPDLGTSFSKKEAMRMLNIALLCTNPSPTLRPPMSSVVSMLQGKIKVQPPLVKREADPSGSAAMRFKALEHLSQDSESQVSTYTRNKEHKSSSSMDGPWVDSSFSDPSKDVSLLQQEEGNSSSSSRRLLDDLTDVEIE
Assay: affinity purification with mass spectrometry

binding: binds
B1: NEMATODE-INDUCED LRR-RLK 2 (NILR2), endogenous (receptor, UniProt C0LGG8 29-1038)
chain: QLLPEDEVQTLRTIFRKLQNQTVNIERTSCSDQNWNFVVESASNSPTSNITCDCTFNASSVCRVTNIQLKSFSLPGIFPPEFGNLTRLREIDLSRNFLNGTIPTTLSQIPLEILSVIGNRLSGPFPPQLGDITTLTDVNLETNLFTGPLPRNLGNLRSLKELLLSANNFTGQIPESLSNLKNLTEFRIDGNSLSGKIPDFIGNWTLLERLDLQGTSMEGPIPPSISNLTNLTELRITDLRGQAAFSFPDLRNLMKMKRLVLRNCLIRGPIPEYIGSMSELKTLDLSSNMLTGVIPDTFRNLDAFNFMFLNNNSLTGPVPQFIINSKENLDLSDNNFTQPPTLSCNQLDVNLISSYPSVTDNSVQWCLREGLPCPEDAKQSSLFINCGGSRLKIGKDTYTDDLNSRGQSTFSSVSERWGYSSSGVWLGKEDAGYLATDRFNLINGSTPEYYKTARLSPQSLKYYGLCLRRGSYKLQLHFAEIMFSNDQTFNSLGRRIFDIYVQGNLLERDFNIAERAGGVGKPFIRQIDGVQVNGSTLEIHLQWTGKGTNVIPTRGVYGPLISAITITPNFKVDTGKPLSNGAVAGIVIAACAVFGLLVLVILRLTGYLGGKEVDENEELRGLDLQTGSFTLKQIKRATNNFDPENKIGEGGFGPVYKGVLADGMTIAVKQLSSKSKQGNREFVTEIGMISALQHPNLVKLYGCCIEGKELLLVYEYLENNSLARALFGTEKQRLHLDWSTRNKICIGIAKGLAYLHEESRLKIVHRDIKATNVLLDLSLNAKISDFGLAKLNDDENTHISTRIAGTIGYMAPEYAMRGYLTDKADVYSFGVVCLEIVSGKSNTNYRPKEEFVYLLDWAYVLQEQGSLLELVDPDLGTSFSKKEAMRMLNIALLCTNPSPTLRPPMSSVVSMLEGKIKVQPPLVKREADPSGSAAMRFKALELLSQDSESQVSTYARNREQDISSSSMDGPWVDSSFSEPGKDVSLQQQEEGRSSSSSRKLLDDLTDVKIE

Results are given in words; binding and its absence hold for the method and conditions named. In cells and extracts the contact can be indirect. These calls come from enrichment with a bait or labelling near it, and not all partners need be listed. Sequences can lack the tags named with a protein.
